Data: PubChem BioAssay AID1259415 (National Center for Advancing Translational Sciences (NCATS), 2018)
Screen size: about 410,000 compounds; about 18,000 (4.4%) were called active. Inconclusive results, whose numbers are uncertain, are shown with a selection of clear calls. No stated cut-off is given here; in the data, active means activity change below about -60%; inconclusive means no clear call, values can overlap the other calls; inactive means above about -39%.

Test: qHTS Assay for inhibitors of the human cytomegalovirus (HCMV)
Conditions: HFF cells, HCMV-luciferase reporter, 72 h; at 57.5 µM; hits give low values
Outline: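 Two compound doses tested in HFFs infected with HCMV-luciferase, MOI 1 PFU/cell, 72 h at 37C. Lysate luminescence read with OneGlo; data normalized against buffer-only and 10uM Salinomycin inhibitor controls.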
On the % scale 0 is the no-effect control and ±100 the full control effect.

SMILES | activity change, negative = inhibition
CCN(CCCNC(=O)CN(C)S(=O)(=O)c1ccc2c(c1)CCC(=O)N2)c1cccc(C)c1 | inactive: -4.49%
Cc1ccc(CSc2oc(-c3ccco3)nc2S(=O)(=O)c2ccc(C)cc2)cc1 | inactive: -17.7%
COc1cccc(CN(C(=O)/C=C/c2ccco2)C2CCS(=O)(=O)C2)c1 (centres undefined) | inconclusive: -41.8%
CC(=O)N1N=C(c2ccncc2)OC1(Cc1ccccc1)Cc1ccccc1 | inconclusive: -40.7%
Cc1ccc(S(=O)(=O)N(CCCN(C)C)Cc2ccc3c(c2)OCO3)cc1 | inconclusive: -59.4%
O=S(=O)(c1ccccc1C(F)(F)F)N1CCC(n2cnc3ccccc32)CC1 | inconclusive: -56.3%
CN(CC(=O)N1CCc2ccccc21)S(=O)(=O)c1cccs1 | inactive: 95.4%
O=C(CSc1nccc(=O)[nH]1)Nc1cccc2ccccc12 | inconclusive: -52%
COc1ccc(N2CCSC2C(=O)NN)cc1 (centres undefined) | inactive: -33.4%
O=C(NCCC1=CCCCC1)c1ccc2c(c1)N(Cc1ccccc1)C(=O)CS2 | inactive: 13.1%
Cc1ccc(-c2cc(C(F)F)n3ncc(C(=O)Nc4cn(C)nc4C)c3n2)cc1 | inconclusive: -58.6%
O=C(Cn1c(=O)oc2cc(Cl)ccc21)Nc1cccc(C(F)(F)F)c1 | inconclusive: -45.3%
Cc1[nH]c2ccc(F)cc2c1CCN(Cc1cccnc1)C(=S)Nc1cccc(F)c1 | inactive: -32.7%
COc1ccc(OC)c(NC(=O)c2cc3cc(C)ccc3n2C)c1 | inactive: 7.79%
CC(C)C(c1nnnn1Cc1ccco1)N1CCN(c2nc3ccccc3s2)CC1 (centres undefined) | inconclusive: -40.3%
CCN(CC)S(=O)(=O)c1ccc(OC)c(NC(=O)c2cccc(C)c2[N+](=O)[O-])c1 | inactive: -26.5%
CCCCc1nc2cc(C(=O)N3CCCCC3CCNC(C)=O)ccc2o1 (centres undefined) | inconclusive: 0%
COc1ccccc1C1c2[nH]c3ccccc3c2CCN1Cc1cnc(C)s1 (centres undefined) | inconclusive: -42.6%
COc1cccc(C(=O)Nc2ccc(N3CCN(Cc4ccccc4)CC3)cc2)c1 | inconclusive: -40.7%
Cc1cc(=O)[nH]c(N/N=C/c2ccc(OC(=O)c3cccnc3)cc2)n1 | active: -64.9%
Cc1ccc(OCc2cc(C(=O)NCC3COCCO3)no2)cc1C (centres undefined) | inactive: 57.8%
CC(C)c1ccc(N=C(N)N=C(N)N)cc1 | inconclusive: -53.3%
COc1ccccc1Oc1ccc(N/C=C/C(=O)c2ccc(C)o2)cc1 | inconclusive: -42.1%
Cc1ccc(C(=O)N[C@H](C(=O)Nc2ccc(N3CCOCC3)cc2)C(C)C)cc1 | inactive: -0.591%

Random excerpt: 2 entries already listed
SMILES | activity change, negative = inhibition
COc1ccc(OC)c(NC(=O)c2cc3cc(C)ccc3n2C)c1 | inactive: 7.79%
CCN(CC)S(=O)(=O)c1ccc(OC)c(NC(=O)c2cccc(C)c2[N+](=O)[O-])c1 | inactive: -26.5%
